No constants are given. Whether binding was seen depends on the method and setting. Binding can be weak; no strength is given. For some of these results: In cells and extracts the contact can be indirect.

Protein sequences, listed by entry. Tags and fused reporters are not part of them. Lines headed by an entry give the natural chain unless they say otherwise; changes in a name come on top.
UniProt G0SGL4: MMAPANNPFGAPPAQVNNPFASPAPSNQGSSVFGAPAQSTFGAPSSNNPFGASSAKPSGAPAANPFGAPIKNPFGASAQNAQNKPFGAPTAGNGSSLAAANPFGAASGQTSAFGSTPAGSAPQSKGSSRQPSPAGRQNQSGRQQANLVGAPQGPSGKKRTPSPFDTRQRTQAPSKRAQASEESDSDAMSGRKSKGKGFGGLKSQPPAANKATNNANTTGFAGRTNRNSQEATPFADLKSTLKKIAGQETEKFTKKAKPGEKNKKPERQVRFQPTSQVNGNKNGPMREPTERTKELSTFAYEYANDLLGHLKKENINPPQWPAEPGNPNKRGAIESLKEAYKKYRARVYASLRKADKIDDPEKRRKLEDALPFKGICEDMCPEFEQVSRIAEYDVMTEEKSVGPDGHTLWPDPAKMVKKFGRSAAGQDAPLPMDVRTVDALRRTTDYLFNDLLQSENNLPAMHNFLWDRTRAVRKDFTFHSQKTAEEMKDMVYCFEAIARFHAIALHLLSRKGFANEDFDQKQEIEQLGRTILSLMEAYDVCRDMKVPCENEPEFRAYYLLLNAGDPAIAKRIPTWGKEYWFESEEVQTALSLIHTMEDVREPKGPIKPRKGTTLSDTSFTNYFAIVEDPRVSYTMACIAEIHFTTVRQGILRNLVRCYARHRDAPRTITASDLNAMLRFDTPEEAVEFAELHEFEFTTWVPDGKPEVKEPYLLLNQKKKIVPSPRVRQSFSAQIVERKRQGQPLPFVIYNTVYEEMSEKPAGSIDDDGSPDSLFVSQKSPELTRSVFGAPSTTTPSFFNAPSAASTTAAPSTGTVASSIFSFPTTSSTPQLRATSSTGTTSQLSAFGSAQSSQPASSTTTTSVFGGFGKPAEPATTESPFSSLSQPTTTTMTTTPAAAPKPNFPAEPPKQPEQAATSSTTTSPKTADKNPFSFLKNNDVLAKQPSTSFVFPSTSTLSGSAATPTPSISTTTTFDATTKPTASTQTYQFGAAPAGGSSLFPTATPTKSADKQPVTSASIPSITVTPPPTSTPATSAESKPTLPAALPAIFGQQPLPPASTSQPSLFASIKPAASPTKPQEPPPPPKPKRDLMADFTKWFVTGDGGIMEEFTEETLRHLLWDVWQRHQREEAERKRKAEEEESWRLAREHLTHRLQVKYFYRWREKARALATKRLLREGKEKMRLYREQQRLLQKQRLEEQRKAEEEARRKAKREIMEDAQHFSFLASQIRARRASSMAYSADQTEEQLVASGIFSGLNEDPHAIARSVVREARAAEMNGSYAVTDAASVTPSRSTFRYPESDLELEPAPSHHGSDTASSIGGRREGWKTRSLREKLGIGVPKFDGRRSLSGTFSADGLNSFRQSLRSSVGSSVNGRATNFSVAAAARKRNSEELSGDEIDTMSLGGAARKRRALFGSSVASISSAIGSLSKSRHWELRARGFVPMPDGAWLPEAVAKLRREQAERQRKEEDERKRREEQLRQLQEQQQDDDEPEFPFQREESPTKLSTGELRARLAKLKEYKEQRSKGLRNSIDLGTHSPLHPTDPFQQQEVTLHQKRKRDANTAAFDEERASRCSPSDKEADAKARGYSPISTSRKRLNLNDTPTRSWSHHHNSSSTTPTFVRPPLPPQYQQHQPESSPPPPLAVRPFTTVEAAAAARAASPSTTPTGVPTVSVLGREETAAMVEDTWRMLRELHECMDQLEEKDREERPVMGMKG

Test [1] addresses ctSac3^CID (C. thermophilum Sac3 CID region, residues 1086-1170) (Chaetomium thermophilum) (UniProt G0SGL4). The experiment in a line: pull-down + SEC; GST-TEV-ctSac3 CID co-expressed with Sus1 and Cdc31 in E. coli; GSH purification, TEV cleavage, size-exclusion chromatography; fractions on SDS-PAGE. Background: Size exclusion chromatography separates by hydrodynamic size, large species first.

Test [2] has the same target. The experiment in a line: crystal structure; ctSac3(1086-1170):ctSus1:ctCdc31, 3.3 Å; 20% PEG 3350, 0.1 M Na succinate, sitting drop; both purified.

Take “ctSus1 (CTHT_0027270), bacterially expressed (from UniProt G0S6Y1)”: the binding result in test [1] and in test [2] was “binds” in each case.
On to “ctCdc31 (XP_006694724), bacterially expressed (from UniProt G0SAR7)”, for which the binding result in test [1] and in test [2] was “binds” each time.

These data come from paper PMC4509546, “Structural Characterization of the Chaetomium thermophilum TREX-2 Complex and its Interaction with the mRNA Nuclear Export Factor Mex67:Mtr2” (Structure(London, England:1993), 2015).
